# From PubChem BioAssay AID2685 (National Center for Advancing Translational Sciences (NCATS), 2010)
# The list shows a part of the results. These are further read-outs of the screen, such as a control signal, another cell line or another target. No call is given for them. The list favours compounds with an active or inconclusive main result. The note in brackets gives the kind of curve behind each potency; many fits are weak.
# Experiment: qHTS Assay for Lipid Storage Modulators in Drosophila S3 Cells;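 as to cell number change: cells counted by Cell Tracker Red CMTPX staining in the red channel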
# Conditions: BODIPY lipid droplet fluorescence, 18-24 h; for cell number change: measured here: cell count max response, cells fed with added oleic acid
# Method in brief: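 Laser-scanning cytometry quantifies lipid droplet accumulation (500–530 nm total intensity; droplet/cell object ratio) in oleic acid-fed (400 uM added) Drosophila S3 cells treated with a concentration series. 20 uM Triacsin C defined 100% inhibition.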
# [1] = measured here: cell number channel AC50, cells fed with added oleic acid
# [2] = measured here: lipid fluorescence (Fed channel) AC50, cells fed with added oleic acid
SMILES,cell number change [%],AC50 [1],AC50 [2]
COc1cccc(C(=O)C2CCCN(C(=O)c3cccc(C#CC(C)(C)O)c3)C2)c1 (stereo not given),-50.9,"29.1 µM [falling, single point]","29.1 µM [falling, single point]"
COC(=O)c1ccc(Sc2ccc(C)cc2)c(N)c1,–,–,"0.0259 µM [falling, full curve, poor fit]"
COc1ccc(CCNC(=O)CN(C)S(=O)(=O)c2ccc3c(c2)CCC(=O)N3)cc1OC,2.03,–,–
c1ccc2c(SCc3cn4cccnc4n3)ncnc2c1,35.1,"25.9 µM [rising, single point]","23.1 µM [rising, single point]"
CCOC(=O)c1c(-c2ccc(C)o2)csc1NC(=O)CSc1nnnn1-c1ccccc1,-47.9,"29.1 µM [falling, single point]","18.4 µM [falling, single point]"
CCN(CC)S(=O)(=O)c1ccc(Cl)c(C(=O)NCc2ccccc2Cl)c1,-12.1,–,–
CN(C)S(=O)(=O)n1cc(/C=C(\NC(=O)c2ccccc2Cl)C(=O)NCCN2CCOCC2)c2ccccc21,–,–,"4.11 µM [rising, partial curve]"
O=C1S/C(=C\c2ccccn2)C(=O)N1Cc1ccccc1F,-8.89,–,"20.6 µM [rising, single point]"
Cc1ccccc1NC(=O)CSc1n[nH]c(-c2ccco2)n1,19.5,–,–
CC1CCN(c2ccc3c(c2)S(=O)(=O)c2cccc(C(=O)NCc4cccc(F)c4)c2C3=O)CC1,-40.1,"25.9 µM [falling, single point]","16.4 µM [falling, single point]"
COCCCNC(=O)/C(C#N)=C1\N=C(NC(=O)c2cccs2)c2ccccc21,–,–,"0.184 µM [rising, full curve, poor fit]"
COc1ccccc1CN(C)C(=O)c1ccccc1SCC(=O)N1CCCC1,24,–,"20.6 µM [rising, partial curve, poor fit]"
O=S(=O)(NNc1ccc(F)cc1F)c1cccc(Cl)c1,0.451,–,–
COc1cccc(NC(=O)C(Sc2nnc3ccccn23)c2ccccc2)c1 (stereo not given),–,"0.231 µM [rising, full curve, poor fit]","2.06 µM [rising, partial curve]"
CN(N)C(=S)Nc1ccc(F)cc1,-16.9,–,"0.82 µM [falling, single point]"
O=C(c1ccccc1)N(Cc1cccs1)C1CCS(=O)(=O)C1 (stereo not given),11.5,–,–
COc1ccccc1NC(=O)CCC(=O)c1ccc(-c2ccccc2)cc1,–,"6.51 µM [rising, single point]","6.51 µM [rising, partial curve]"
COc1ccccc1C(=O)NNC(=O)c1ccc(NC(=O)C(C)C)cc1,–,–,"6.51 µM [falling, single point]"
Cc1ccc(OCCN2CCCCCC2)c(C)c1,-10.1,–,"18.4 µM [falling, single point]"
CCOC(=O)c1c(C)c(C(=O)N2CCN(C(=O)c3ccco3)CC2)c(C)n1C,-6.93,–,–
CCC(=O)Nc1cccc(NC(=O)CN2CCN(c3ccccc3OC)CC2)c1,4.85,–,–
CCN(CC(=O)NCc1cccs1)C(=O)c1ccc(S(=O)(=O)Nc2cccc(C)c2C)cc1,-22.3,–,"35.5 µM [falling, single point]"

SMILES,cell number change [%],AC50 [1],AC50 [2]
O=C(Nc1ccc(NC(=O)c2cccs2)cc1)c1cccnc1,-9.77,"2.06 µM [rising, partial curve]",–
O=C(OCC(=O)N1CCCc2ccccc21)c1cnc(Cl)c(Cl)c1,-14.3,–,–
Cc1ccsc1C1CC(=O)OC2=C1C(=O)CC(C)(C)C2 (stereo not given),-9.38,–,"0.00411 µM [falling, full curve, poor fit]"
CCOc1ccc(C(=O)NCC(=O)OCC(=O)Nc2ccccc2OCC)cc1,-32.1,–,"0.13 µM [falling, full curve, poor fit]"
Cc1c(C(=O)N2CCc3ccccc3C2)sc2nc(-c3ccccc3)cn12,-216,–,–
CN1CCc2c(sc3c2c(=O)n(-c2ccccc2)c2nnc(SCc4ccccc4)n32)C1,9.14,–,–
CCCc1cc(=O)oc2c(CN3CCN(C)CC3)c(O)ccc12,23.4,–,–
COC(=O)NCC(C)OC(=O)Nc1cccc(Cl)c1 (stereo not given),-21.3,–,–
Cc1ccccc1NS(=O)(=O)c1ccc(C(=O)N2CCCC2)cc1,-51.9,"25.9 µM [falling, partial curve]",–
O=C(COC(=O)c1ccc(Cl)nc1)Nc1ccc(N2CCOCC2)cc1,–,–,"18.4 µM [rising, single point]"
CCOc1ncccc1C(=O)Nc1ccc(S(=O)(=O)NC2=NCCCCC2)cc1,114,"1.84 µM [rising, full curve]",–
Cc1cc2nc(C)c3c(n2n1)CCC3,–,"6.51 µM [rising, single point]",–
CCC(=O)Nc1ccc(NC(=O)c2cccc3ccccc23)cc1,22.9,–,–
CN(C)CCOC(=O)C12CC3(C)CC(C)(CC(C)(C3)C1)C2,-4.34,–,"0.731 µM [falling, single point]"
CCOc1cc(C(=O)N2CCN(c3ccccn3)CC2)cc(OCC)c1OCC,-50,"16.4 µM [falling, single point]",–
O=C(O)CCCC(=O)Nc1ccn(-c2ccccc2)n1,1.23,–,"6.51 µM [falling, single point]"
Cc1ccc(CNc2nc(N)c([N+](=O)[O-])c(Nc3cccc(F)c3)n2)cc1,–,"3.26 µM [rising, single point]",–
Nc1nnc(SCC(=O)NNC(=O)c2ccc([N+](=O)[O-])cc2)s1,-31.4,"0.82 µM [falling, full curve]","0.92 µM [falling, full curve, poor fit]"
CN(C)c1cc(N/N=C/c2ccc(Cl)cc2)nc(N(C)C)n1,-36.7,"29.1 µM [falling, single point]",–
O=C(OCCN1C(=O)c2cccc3c(N4CCOCC4)ccc(c23)C1=O)c1ccccc1Cl,-10.1,–,–
CCOP1(=O)OCC2OC(n3cnc4c(N)ncnc43)C(O)C2O1 (stereo not given),-2.99,"2.59 µM [rising, single point]",–
O=C(Nc1ccc(-c2csc(-c3ccccc3)n2)cc1)c1ccccc1,-58.2,"23.1 µM [falling, single point]","23.1 µM [falling, single point]"

# Sorted by formula weight (rising): 5 of the compounds above.
SMILES,cell number change [%],AC50 [1],AC50 [2]
COC(=O)NCC(C)OC(=O)Nc1cccc(Cl)c1 (stereo not given),-21.3,–,–
CN(C)c1cc(N/N=C/c2ccc(Cl)cc2)nc(N(C)C)n1,-36.7,"29.1 µM [falling, single point]",–
O=C(Nc1ccc(NC(=O)c2cccs2)cc1)c1cccnc1,-9.77,"2.06 µM [rising, partial curve]",–
Cc1c(C(=O)N2CCc3ccccc3C2)sc2nc(-c3ccccc3)cn12,-216,–,–
CCOc1ncccc1C(=O)Nc1ccc(S(=O)(=O)NC2=NCCCCC2)cc1,114,"1.84 µM [rising, full curve]",–

# More results follow:

SMILES,cell number change [%],AC50 [1],AC50 [2]
COc1cc(C(=O)N2CCN(S(=O)(=O)c3cccc(F)c3)CC2)ccc1OCC(=O)N1CCOCC1,–,"0.103 µM [falling, full curve, poor fit]","29.1 µM [rising, single point]"
CCOc1ccccc1NC(=O)c1cc(C(=O)Nc2ccccc2OCC)cc(N2C(=O)CCC2=O)c1,-1.49,"6.51 µM [falling, single point]",–
Cc1ccc(C(c2nnnn2CC2CCCO2)N2CCN(c3cccc(C)c3C)CC2)cc1 (stereo not given),-18.8,–,"4.61 µM [rising, full curve]"
Cn1cc(CN2CCCC(C(=O)Nc3cccc(-n4cccn4)c3)C2)cn1 (stereo not given),18.2,–,–
CC(=O)NC(CC(=O)Nc1nc(-c2ccccc2)c(C(C)=O)s1)c1ccccc1 (stereo not given),-1.28,–,"25.9 µM [falling, single point]"
C=CCn1c(Cc2csc(N)n2)nnc1SCC(=O)OCC,-14.8,–,"25.9 µM [falling, partial curve]"
CCCC1(c2ccccc2)NC(=O)N(CC(=O)NCc2ccc(C)cc2)C1=O (stereo not given),93.7,"23.1 µM [rising, partial curve]","29.1 µM [rising, single point]"
Cc1nc2ccc(C(=O)N3CCSCC3)cc2s1,10.8,–,"0.651 µM [falling, partial curve, poor fit]"
CC(C)Sc1nc2ccccc2n1CC(N)=O,6.59,–,"1.16 µM [falling, full curve, poor fit]"
O=c1cc(CN2CCN(Cc3ccc(F)cc3)C(CCO)C2)[nH]c2ccccc12 (stereo not given),7.62,–,"0.116 µM [rising, full curve, poor fit]"
Cc1ccc(S(=O)(=O)NCC(=O)OCC(=O)N(C)C2CCCCC2)cc1,-6.22,–,"2.31 µM [rising, partial curve]"
CCOP(=O)(C1=C(O)C(=O)C(C(C)(C)C)=CC1=O)c1ccccc1 (stereo not given),-71.5,–,"29.1 µM [falling, single point]"
CC(c1ccco1)N(C(=O)c1ccc(Cl)s1)c1ccccn1 (stereo not given),-24,–,–
Cc1cc(C)cc(OCC(=O)Nc2ccc(F)cc2)c1,-43.2,"20.6 µM [falling, partial curve]",–
CC1CCN(C(=O)c2ccc(CSc3ccc(Cl)cc3)cc2)CC1,5.83,–,"14.6 µM [rising, partial curve, poor fit]"
COc1ccccc1NC(=O)c1ccc(S(=O)(=O)N(C)C)cc1,–,"6.51 µM [rising, single point]",–
COc1cccc(N2CCN(CC(=O)Nc3nc(C)c(C(=O)N(C)C)s3)CC2)c1,43.9,"16.4 µM [rising, partial curve, poor fit]","18.4 µM [rising, partial curve]"
Cc1[nH]c2ccccc2c1SCc1nnc(SCc2ccccc2)n1C,-23,–,–
Cn1c(=O)[nH]c(=O)c2c1nc(NN)n2CCOc1ccccc1,–,–,"2.91 µM [rising, single point]"
COCCn1c(=NC(=O)CCS(=O)(=O)c2ccccc2)sc2cc(F)ccc21,-1.73,–,"6.51 µM [rising, single point]"
